Reference: paper PMC11442585
Results are given in words; binding and its absence hold for the method and conditions named. Some binding calls cover weakened binding; strength is not graded here. Tags and fused reporters may be left off the sequences shown.

Molecular target: T1, linker histone H5 (chicken), P02259
T1 chain: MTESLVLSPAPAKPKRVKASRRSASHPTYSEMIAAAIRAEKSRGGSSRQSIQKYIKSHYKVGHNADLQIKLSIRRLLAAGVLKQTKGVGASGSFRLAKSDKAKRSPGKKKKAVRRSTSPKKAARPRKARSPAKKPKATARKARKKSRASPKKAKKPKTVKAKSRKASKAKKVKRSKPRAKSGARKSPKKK
Assay: cryo-EM structure; H5-chromatin fiber (dodecanucleosome) reconstituted by salt dialysis from 12x 177 bp 601 DNA, histone octamers and an equal molar amount of H5; HE buffer (10 mM HEPES, pH 8.0, 0.1 mM EDTA); fixed with 0.2% glutaraldehyde; 3.6 Å; both purified
Conditions: remark: other sources report otherwise

- binding: binds
B1: linker histone H5, P02259 1-190 (protein)
chain: T1 chain
